Primary screen of a compound library

Source: ChEMBL document CHEMBL3988442, “University of Dundee, Small-Polar-MMV Screening Library” (2021).

Mtb growth Cornell: 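Whole-cell assay for inhibitors of Mycobacterium tuberculosis growth, labelled Cornell in the record; the read-out is not stated. The concentration is filed as 10 mM, unlikely as a test dose, so the dose is not known. The record gives no direction; compounds strong in two other growth screens of this library score well above the rest, so higher reads as stronger inhibition. Of about 53,000 compounds tested this way, about 900 (1.7%) reached 50% or more in at least one test.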
Mtb heat-shock: 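Assay on Mycobacterium tuberculosis, filed only as a heat shock assay from Cornell; the read-out is not stated. The concentration is filed as 10 mM, unlikely as a test dose, so the dose is not known. Direction is inferred from retests: higher values go with stronger inhibition. About 69,000 compounds were tested under these conditions; 1.4% (about 930) showed 50% or more at least once.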

Results are given as percent effect. How 0% and 100% were set is not recorded. Most values in the screen are low, and negative values occur. This is an unselected part of the compounds tested. A dash means the value is not listed here; it may have been measured.

| structure | Mtb growth Cornell | Mtb heat-shock |
|---|---|---|
| `Cl.NCCC(=O)Nc1ccc(-c2ccccc2)cc1` | 10.79 | 3.2 |
| `CN(C)C(=O)CN1CCC2(CCN(C(=O)N3CCCC3)CC2)C1=O` | 7.438 | -6.085 |
| `O=C(O)C(F)(F)F.[H][C@@]12COC[C@]1(COCc1cccnc1)CN(C(=O)Cc1cccs1)C2` | 7.425 | -18.58 |
| `Cn1cnc(S(=O)(=O)NCCC(O)c2ccc3c(c2)OCO3)c1` (stereo not given) | -35.45 | -5.811 |
| `COC(=O)c1cccc(S(=O)(=O)NC(=O)COC2CCCC2)c1` | -13.69 | -6.311 |
| `Cc1cnc(CN(Cc2cccc(O)c2)CC2CC2)cn1` | -22.2 | -9.456 |
| `O=C(N[C@H]1CC[C@@]2(CCC(=O)N2CC2CC2)CC1)c1cnccn1` | 14.05 | 5.637 |
| `CN(C)c1cc(C2CCCN2C(=O)c2ccc(=O)n(C)c2)ccn1` (stereo not given) | -0.441 | -4.402 |
| `Cc1ccc(NCc2ccc(C#N)cc2)cc1-n1cnnn1` | -23.58 | -0.578 |
| `Cn1cc(C(=O)CC2CCCN2C(=O)c2ccc(Cl)cn2)cn1` (stereo not given) | 32.24 | 10.94 |
| `Cc1noc(CN2CCC(Cc3ccc(F)cc3)CC2)n1` | 34.84 | -9.695 |
| `COCCn1ccc2cc(C(=O)NC3CCOC(C)(C)C3)ccc21` (stereo not given) | 51.29 | 9.719 |
| `COc1ccc(CNc2cc3[nH]c(O)nc3cc2C)cc1` | 38.63 | 15.37 |
| `Cc1cc(-c2cnc(NC3CCCC3)nc2-c2ccc(C)o2)on1` | 92.52 | 32.16 |
| `O=C(NCc1cccnc1N1CCCCC1)c1ccc2[nH]nnc2c1` | -34.03 | -30.97 |
| `Cc1nc(C(C)Nc2ncnc3c2CCNCC3)c(C)s1` (stereo not given) | 21.93 | -11.92 |
| `CN1CC(=O)N(c2cnn(C)c2)CC12CCN(Cc1nccn1C)C2.O=C(O)C(F)(F)F.O=C(O)C(F)(F)F` (stereo not given) | 29.09 | 3.462 |
| `COCCC(C)NC(=O)N1CCSC(C)(C)C1` (stereo not given) | - | 2.645 |
| `CCNC(=O)NC(C)(C)C(=O)NCCc1csc2ccccc12` | 33.46 | -12.72 |
| `Cc1noc(C(C)N2CCN(CCN3CCCC3=O)CC2)n1` (stereo not given) | -19.15 | -5.227 |
| `O=c1[nH]nc(C2CC2)n1-c1cccc(Cl)c1` | - | -165.5 |
| `CNC(=O)c1cnc2n1CCN(Cc1cccnc1)C2.O=C(O)C(F)(F)F.O=C(O)C(F)(F)F.O=C(O)C(F)(F)F` | -28.96 | -16.17 |
| `CCC(C)N1Cc2c(C(=O)N3CCCC3)nn(C)c2C1.O=C(O)C(F)(F)F` (stereo not given) | 34.19 | -0.7353 |
| `COCCO[C@H]1CCN(C(=O)c2ccno2)[C@H]1Cc1cnn(C)c1` | 12.23 | 2.288 |
| `COc1c(C)cnc(CN(C)C2CCOC3(CCOCC3)C2)c1C` (stereo not given) | -7.946 | 9.071 |
| `CCn1ccc(CNC(=O)c2cc(OC)cc(OC)c2)n1` | 3.102 | -3.259 |
| `Cc1cccc(NC(=O)N2Cc3c(CN(C)C)nn(C)c3C2)c1` | -33.34 | -19.93 |
| `COc1c(C2CCCN2C(=O)c2ccnn2C)c(C)nn1C` (stereo not given) | -17.77 | -4.147 |
| `CC1(C(=O)N2CCOCC2)CN(C2CCCCC2)CCO1` (stereo not given) | -7.446 | 10.72 |
| `Cc1nccn1-c1ccc(CNC(=O)c2ccc(O)nc2)cn1` | - | 13.52 |
| `CNC(=O)CCc1cc(C)nc(C2CCN(C3CCCCC3)CC2)c1` | 24.39 | -0.2412 |
| `[H][C@@]12CCN(C(=O)c3ccncn3)C[C@@]1([H])O[C@H](C)C2` | 16.17 | 7.154 |
| `COc1cccc(-c2n[nH]cc2CNC2CCC(O)CC2)c1.Cl` (stereo not given) | - | 1.405 |
| `Cc1cc(C2CCCN2C(=O)c2cnn(C)c2)on1` (stereo not given) | -24.04 | 4.975 |
| `Cc1cc(N(C)C)nc(N2CCCC2c2cccnc2)n1` (stereo not given) | 19 | -25.88 |
| `CS(=O)(=O)N1CCCn2nc(CNc3ncccn3)cc2C1` | - | 19.03 |
| `Cc1cccc(CC(=O)N2CCCC(N(C)CCCN(C)C)C2)c1` (stereo not given) | -5.303 | 3.603 |
| `CO[C@@H]1CN(c2ccccc2)S(=O)(=O)[C@@]12CCN(C(=O)N(C)C)C2` | -15.2 | 25.72 |
| `[H][C@@]12CS(=O)(=O)C[C@]1([H])NCCN2C(=O)COc1ccccc1N1CCCC1` | - | 19.62 |
| `CNC(=O)NC(=O)C(NCc1cccs1)c1ccccc1` (stereo not given) | -9.241 | -12.44 |
| `O=C(O)C(F)(F)F.[H][C@]12CCN(S(=O)(=O)c3ccc(F)cc3)C[C@@]1([H])OCCN(C)C2` | 28.27 | -7.706 |
| `Cc1[nH]c(-c2ccccc2)nc1C(=O)N1CCc2[nH]cnc2C1C(=O)O` (stereo not given) | 2.516 | 4.823 |
| `CC(C)c1nnc(CNC2CCCN(Cc3noc(C4CC4)n3)C2)o1` (stereo not given) | - | 16.47 |
| `CS(=O)(=O)c1ccc(C(=O)N2CCCC(n3ccnc3)C2)cc1` (stereo not given) | -36.29 | 8.305 |
| `COc1ccc(CN2CCc3c(CNC(=O)CC#N)nn(C)c3C2)cc1.O=C(O)C(F)(F)F.O=C(O)C(F)(F)F` | -10.89 | 4.321 |
| `COc1ccc(-c2noc([C@@H]3C[C@@H](O)CN3C3CCCCC3)n2)cc1` | 27.66 | -19.14 |
| `Cc1nn(C)c(C)c1CN(C)C(C(=O)O)c1ccc(F)cc1F` (stereo not given) | 3.816 | 1.333 |
| `CN1CCN(C(=O)c2nnc3ccc(Cl)cc3n2)CC1` | 64.7 | 68.14 |
| `Cc1cncc(C(=O)N2CCCCC2c2nc(C)cs2)c1` (stereo not given) | -11.09 | -32.17 |
| `O=C(CCc1nc2cc(Br)cnc2[nH]1)NCCN1CCOCC1` | 0.1282 | -23.6 |
| `CN(Cc1ccccc1)c1cnn(CC2COCCO2)c(=O)c1` (stereo not given) | - | 2.398 |
| `Cc1nnc(NCc2ccc(N3CCC(CO)CC3)cc2)c(C#N)c1C` | -12.64 | 11.35 |
| `Cc1nccn1-c1nccnc1C1CCCN(C)C1` (stereo not given) | 23.67 | 3.121 |
| `CCSc1ccccc1C(=O)NCC1CCN(Cc2ccsc2)CC1` | 23.96 | 18.02 |
| `Cc1nn(C)c2ncc(CN3CCN(c4ncccn4)CC3)cc12` | 1.888 | -10.19 |
| `COc1ccccc1Oc1ncccc1CNC(=O)C1COC(=O)N1` (stereo not given) | -11.66 | 3.964 |
| `CC(C)CN(CC(O)c1ccc(F)cc1)C(=O)c1csnn1` (stereo not given) | -12 | -31.07 |
| `CCCC1c2cccn2CCN1C(=O)Cn1cnc2sc(C)cc2c1=O` (stereo not given) | 53.74 | 7.961 |
| `COCCn1ccc2c(NC(=O)c3n[nH]c4c3CCCC4)cccc21` | 70.2 | -4.304 |
| `CC(C)CC(NC(=O)OC(C)(C)C)C(N)=O` (stereo not given) | 5.519 | 3.08 |
| `Cc1cc(CNc2ccc(-c3nc(C4CC4)no3)cn2)no1` | 4.092 | 10.86 |
| `Cc1nc(CSCCC(=O)Nc2cccc(N3CCNC3=O)c2)cs1` | 17.69 | 4.619 |
| `[H][C@]12CN(C(=O)CC3CC3)C[C@@]1([H])C(=O)N(c1ccccc1)C2` | 6.93 | 6.946 |
| `O=C(NC1CCCCC1)N1CCC(N2Cc3ncccc3C2=O)CC1` | 3.795 | -0.35 |
| `Cc1nnc(NC(=O)C(C)n2ncc(Br)c2C)s1` (stereo not given) | 19.07 | -14.54 |
| `COCc1nc(CNC2CCCC(C)(C)C2)no1` (stereo not given) | -12.86 | 40.95 |
| `CCNC(=O)NC1CCCN(c2ccc(C)cc2)C1=O` (stereo not given) | 20.26 | -7.904 |
| `Clc1ccc(C2(CNC3=NCCN3)CCCCC2)cc1.I` | -8.989 | 77.48 |
| `[H][C@]12CCCCN1CCC[C@H]2COc1ccc2c(c1)OCC2=O` | - | -1.759 |
| `COc1ccccc1C(=O)N(C)Cc1ncc(C)c(OC)c1C` | - | 6.799 |
| `CS(=O)(=O)N1CC2(CCN(C3CCCCC3)CC2)Cc2ccccc21` | - | -29.59 |
| `COc1ccc(C(=O)N2C[C@@H](CN3CCCCC3)[C@@H](CO)C2)cc1Cl` | -6.504 | -7.35 |
| `O=C(O)C(F)(F)F.O=C(O)C(F)(F)F.O=C(O)C(F)(F)F.[H][C@]12C[C@H](C(=O)N3CCN(C)CC3)N(C)[C@@]1([H])CN(c1ncc(C)cn1)C2` | 3.374 | -4.262 |
| `Cc1cc(C)nc(C2CCN(c3ccncn3)C2)n1` (stereo not given) | 6.553 | -16.1 |
| `Cc1ccccc1CN1CCN(C(=O)CN2CCOC2=O)CC1` | 16.76 | -1.109 |
| `O=C(O)C(F)(F)F.O=C(O)C(F)(F)F.[H][C@@]12CN(Cc3ccncc3)C[C@]1([H])C(=O)N(Cc1ccc(OC)cc1)C2` | - | -0.4769 |
| `CNC(=O)c1cccc(NC(=O)CN2CCN(S(C)(=O)=O)CC2)c1` | 12 | 1.507 |
| `Cc1c(NC(=O)N(C)CCO)cccc1OC1CCCC1` | -21.51 | 10.05 |
| `CN(C)S(=O)(=O)N1CCC(Cn2cccn2)CC1` | 3.373 | 17.09 |
| `COC(=O)NC1(C(=O)Nc2ccc(-c3cc[nH]n3)cc2)CCCC1` | 5.618 | 12.9 |

Some entries from above, unchanged:

| structure | Mtb growth Cornell | Mtb heat-shock |
|---|---|---|
| `COc1c(C)cnc(CN(C)C2CCOC3(CCOCC3)C2)c1C` (stereo not given) | -7.946 | 9.071 |
| `Cn1cnc(S(=O)(=O)NCCC(O)c2ccc3c(c2)OCO3)c1` (stereo not given) | -35.45 | -5.811 |
| `O=C(O)C(F)(F)F.[H][C@@]12COC[C@]1(COCc1cccnc1)CN(C(=O)Cc1cccs1)C2` | 7.425 | -18.58 |
| `Cc1c(NC(=O)N(C)CCO)cccc1OC1CCCC1` | -21.51 | 10.05 |
| `O=C(NCc1cccnc1N1CCCCC1)c1ccc2[nH]nnc2c1` | -34.03 | -30.97 |
| `CNC(=O)c1cnc2n1CCN(Cc1cccnc1)C2.O=C(O)C(F)(F)F.O=C(O)C(F)(F)F.O=C(O)C(F)(F)F` | -28.96 | -16.17 |
| `Cc1cncc(C(=O)N2CCCCC2c2nc(C)cs2)c1` (stereo not given) | -11.09 | -32.17 |
| `O=c1[nH]nc(C2CC2)n1-c1cccc(Cl)c1` | - | -165.5 |